We go through one molecule from article PMC9763448.

These are yes or no findings as the source states them, for the method shown. Some binding calls cover weakened binding; strength is not graded here.

The target of the test is T1, PmDAM5 (Prunus mume) (UniProt G1UE18).
T1 sequence: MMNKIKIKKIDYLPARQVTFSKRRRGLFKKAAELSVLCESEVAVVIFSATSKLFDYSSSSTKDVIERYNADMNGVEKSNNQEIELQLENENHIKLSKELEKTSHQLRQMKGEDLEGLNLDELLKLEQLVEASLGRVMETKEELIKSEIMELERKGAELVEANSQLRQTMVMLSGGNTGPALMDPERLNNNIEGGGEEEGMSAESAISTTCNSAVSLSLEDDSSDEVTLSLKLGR
The test can be described thus: two-hybrid; yeast two-hybrid; baits in pGBKT7, preys in pGADT7; baits tested for autoactivation and toxicity; growth at four levels of initial concentration; screening in triplicate.

B1: PmDAM1 (protein, UniProt G1UE19 1-235)
chain: MKMMREKIKIKKIDNLPARQVTFSKRRRGIFKKAAELSVLCESEVAVVIFSATGKLFDYSSSSMKDVIERYQVHINGGEKFNERSIELQPEYENHIRLSKELKEKSRQLRQMKGEDLEELNFDELQKLEQLVDASLGRVIETKDERIMSEIMALERKRAELVKANKQLRQRMLFRGNIGPELMKPERLNNNFGGGGEEEGMSSESATSTTCNSAPSLSLEDDSDDVTLSLKLGLP
On to B1, for which the binding result was “binds”.
